Test results: patent publication US6469055B2, “Compositions and methods for treatment of neurological disorders and neurodegenerative diseases” (Massachusetts Institute of Technology, priority 1996, dated 2002)
Entries after “also recorded” stand apart in the source; their conditions may differ. At least one compound was matched to its structure with a doubt left.

Columns and labels:
APP synthesis = APP synthesis (APP mRNA and holoprotein) in cultured cortical astrocytes; type: cell-based, rat
APP holoprotein = assay: Cell-associated APP (APP holoprotein), Western blot, cultured cortical astrocytes; settings: 24 h
cellular cAMP levels = assay: cAMP assay in cultured astrocytes; type: cell-based, rat
Description: In brief, after aspirating the medium and rinsing twice with 1 ml ice cold PBS, the cells were scraped in 0.8 ml ice cold ethanol and sonicated. […] After resuspension in 120 μl Tris/EDTA buffer, two duplicate samples of 50 μl each were mixed with the binding protein, [8-^3H] adenosine 3′, 5′-cyclic phosphate tracer and incubated at 2-4° C. for 2 h. A charcoal suspension (100 μl) was added to the samples before centrifugation and 200 μl of the supernatant were removed for. scintillation counting. The amount of cyclic AMP (pmol/mg protein) was estimated by comparing to known standards, and normalized to the amounts of whole cell protein as determined by the bicinchoninic acid assay (Sigma).

APP mRNA = assay: APP mRNA, Northern blot, cultured cortical astrocytes; settings: cyclosporin A or FK-506 50 μM, 24 h
[1] = test system: glial fibrillary acidic protein (GFAP); assay: GFAP protein in cultured astrocytes, Western blot; type: cell-based, rat; settings: 8Br-cAMP or forskolin 50, 100 or […] μM, 24 hours

## C=CC[C@@H]1/C=C(\C)C[C@H](C)C[C@H](OC)[C@H]2O[C@@](O)(C(=O)C(=O)N3CCCC[C@H]3C(=O)O[C@H](/C(C)=C/[C@@H]3CC[C@@H](O)[C@H](OC)C3)[C@H](C)[C@@H](O)CC1=O)[C@H](C)C[C@@H]2OC [FK-506]
APP synthesis
  effect on APP synthesis: decrease or inhibit
APP synthesis; cyclosporin A or FK-506
  effect on APP overexpression stimulated by PG E2 or by forskolin: completely abolished
APP holoprotein; cyclosporin A or FK-506 50 μM, PG E2 10 μM
  effect on the increase in APP holoprotein stimulated by PG E2: significantly inhibited
APP holoprotein; cyclosporin A or FK-506 50 μM, forskolin 50 μM
  effect on the increase in APP holoprotein stimulated by forskolin: significantly inhibited
Cellular cAMP levels; cyclosporin A or FK-506 (50 μM) alone
  effect on basal cAMP levels: neither cyclosporin A nor FK-506 had any effect
Cellular cAMP levels; cyclosporin A or FK-506, PG E2 10 μM
  effect on cellular cAMP levels stimulated by PG E2: neither cyclosporin A nor FK-506 had a significant effect; also recorded: neither drug inhibited
APP mRNA; PG E2 10 μM
  effect on the increase in APP mRNA stimulated by PG E2: significantly inhibited
APP mRNA; forskolin 50 μM
  effect on the increase in APP mRNA stimulated by forskolin: significantly inhibited

## C=C[C@@]1(C)CC(=O)[C@]2(O)[C@@]3(C)[C@@H](O)CCC(C)(C)[C@@H]3[C@H](O)[C@H](OC(C)=O)[C@@]2(C)O1 [forskolin]
[1]
  GFAP protein: significant increases
APP synthesis; 8Br-cAMP […] μM, forskolin 10, 50 or 100 μM
  mimicry of the stimulatory effect of PG E2 on APP synthesis: mimicked
APP holoprotein; 8Br-cAMP or forskolin 50, 100 or […] μM, R37 or mAb22C11
  cell-associated APP versus concentration: increases with increasing concentrations; also recorded: increases linearly
Cellular cAMP levels; 1 h, 8Br-cAMP […] μM or forskolin 10, 50 or 100 μM
  cellular cAMP levels: significantly increased
